# Taken from: PubChem BioAssay AID1159592 (NIAID, 2016)
# Aim: 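Toll-like receptor pathway genes that R848 needs to send NF-kB into the nucleus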
# Cell system: RAW264.7 macrophages from mouse bearing reporters for p65 (GFP) and the Tnf promoter (mCherry)
# Knock-down reagent: single siRNA against mouse genes
# Timing: 48 to 72 hours after siRNA transfection
# Challenge: R848 TLR ligand for 40 minutes before fixation; dose not given
# Measured: 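Replicate mean of robust z-score relative to negative-control wells, after median/MAD scaling by plate, for the imaged GFP-p65 nuclear-to-cytoplasmic ratio 40 minutes after R848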
# Direction: NF-kB translocation z-score: higher = more p65 moved into the nucleus than in negative-control wells
# Call rule: 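Active when the replicate-mean z lies above 1.5 or below -1.5; the depositor also grades absolute z in steps of 1, 1.5, 2 and 2.5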
# Meaning of the calls: active = strong change, either direction; inactive = little change
# This is a random part of 756 deposited reagents. 147 of all reagents (19%) were called active. 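Active covers both loss and gain of p65 entry; negative z means weaker NF-kB activation, positive means more nuclear p65.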 The numbers tell different reagents against one gene apart. The record does not give: the amount of reagent.
gene symbol,siRNA no.,"NF-kB translocation z-score, replicate mean",Call
Fadd,1,-1.05,inactive
Fadd,2,-0.704,inactive
Fadd,3,-1.47,inactive
Fadd,4,-0.61,inactive
Fadd,5,-0.476,inactive
Fadd,6,0.147,inactive
Map3k1,1,1.97,active
Map3k1,2,-1.99,active
Map3k1,3,0.216,inactive
Map3k1,4,0.176,inactive
Map3k1,5,0.331,inactive
Map3k1,6,0.379,inactive
Mapk12,1,-0.0259,inactive
Mapk12,2,-0.82,inactive
Mapk12,3,-1.45,inactive
Mapk12,4,0.283,inactive
Mapk12,5,-0.142,inactive
Mapk12,6,-0.646,inactive
Ptk2b,1,0.788,inactive
Ptk2b,2,1.25,inactive
Ptk2b,3,0.0247,inactive
Ptk2b,4,0.37,inactive
Ptk2b,5,0.0511,inactive
Ptk2b,6,0.722,inactive
Pik3r3,1,1.56,active
Pik3r3,2,1.83,active
Pik3r3,3,-1.07,inactive
Pik3r3,4,-0.112,inactive
Pik3r3,5,-1.69,active
Pik3r3,6,-1.17,inactive
Elf4,1,0.143,inactive
Elf4,2,-1.38,inactive
Elf4,3,-0.645,inactive
Elf4,4,-0.626,inactive
Elf4,5,-1.56,active
Elf4,6,-0.328,inactive
Akt2,1,-1.19,inactive
Akt2,2,1.02,inactive
Akt2,3,0.989,inactive
Akt2,4,-1.59,active
Akt2,5,0.227,inactive
Akt2,6,-0.238,inactive
Ets1,1,0.927,inactive
Ets1,2,0.952,inactive
Ets1,3,-2.08,active
Ets1,4,1.09,inactive
Ets1,5,1.67,active
Ets1,6,0.135,inactive
Mapk3,1,-1.43,inactive
Mapk3,2,0.845,inactive
Mapk3,3,0.0363,inactive
Mapk3,4,-0.528,inactive
Mapk3,5,-0.624,inactive
Mapk3,6,-0.0806,inactive
Crebbp,1,0.106,inactive
Crebbp,2,-2.25,active
Crebbp,3,-1.8,active
Crebbp,4,-0.722,inactive
Crebbp,5,-3.6,active
Crebbp,6,-1.21,inactive
Tab1,1,-0.677,inactive
Tab1,2,-1.18,inactive
Tab1,3,-1.43,inactive
Tab1,4,-1.39,inactive
Tab1,5,-0.115,inactive
Tab1,6,-1.82,active
Irf9,1,-0.898,inactive
Irf9,2,-1.39,inactive
Irf9,3,0.416,inactive
Irf9,4,0.785,inactive
Irf9,5,0.356,inactive
Irf9,6,-0.0298,inactive
Tbk1,1,0.418,inactive
Tbk1,2,0.446,inactive
Tbk1,3,-0.765,inactive
Tbk1,4,0.611,inactive
Tbk1,5,-0.503,inactive
Tbk1,6,0.62,inactive
Egr2,1,-0.445,inactive
Egr2,2,-0.212,inactive
Egr2,3,-1.41,inactive
Egr2,4,-2.94,active
Egr2,5,-0.854,inactive
Egr2,6,-0.231,inactive
Il1b,1,0.819,inactive
Il1b,2,-1.17,inactive
Il1b,3,0.284,inactive
Il1b,4,-0.28,inactive
Il1b,5,-0.824,inactive
Il1b,6,-0.218,inactive
Tlr3,1,1.06,inactive
Tlr3,2,-0.798,inactive
Tlr3,3,-0.657,inactive
Tlr3,4,-0.194,inactive
Tlr3,5,0.176,inactive
Tlr3,6,0.102,inactive
Pik3cd,1,0.132,inactive
Pik3cd,2,-0.728,inactive
Pik3cd,3,-0.766,inactive
Pik3cd,4,-0.167,inactive
Pik3cd,5,-0.0873,inactive
Pik3cd,6,-0.532,inactive
Il6,1,0.075,inactive
Il6,2,-0.484,inactive
Il6,3,-0.452,inactive
Il6,4,-1.33,inactive
Il6,5,0.171,inactive
Il6,6,0.206,inactive

14 entries already listed, sorted by “NF-kB translocation z-score, replicate mean”, low to high:
gene symbol,siRNA no.,"NF-kB translocation z-score, replicate mean",Call
Tab1,6,-1.82,active
Irf9,2,-1.39,inactive
Irf9,1,-0.898,inactive
Tbk1,3,-0.765,inactive
Tbk1,5,-0.503,inactive
Egr2,1,-0.445,inactive
Irf9,6,-0.0298,inactive
Irf9,5,0.356,inactive
Irf9,3,0.416,inactive
Tbk1,1,0.418,inactive
Tbk1,2,0.446,inactive
Tbk1,4,0.611,inactive
Tbk1,6,0.62,inactive
Irf9,4,0.785,inactive
